Reference: PubChem BioAssay AID2551 (National Center for Advancing Translational Sciences (NCATS), 2010)
Among all 310,000 compounds or so, about 17,000 (5.5%) were called active. This list was built around the results that the source calls inconclusive (neither active nor inactive); the mix of calls is not that of the screen. Calls follow the shape of the dose curve; as a rule, active = well fitted inhibition curve with a large enough effect; inconclusive = small, poorly fitted or top-dose-only effect, or effect the other way; inactive = no such curve, though single readings can be large or run the other way. A potency beside an inconclusive call is a rough fit, not a confirmed value.

Chains of the proteins cited; added tags and fusions are not shown. Lines headed by an entry give the natural chain unless they say otherwise; changes in a name come on top.
UniProt P51450: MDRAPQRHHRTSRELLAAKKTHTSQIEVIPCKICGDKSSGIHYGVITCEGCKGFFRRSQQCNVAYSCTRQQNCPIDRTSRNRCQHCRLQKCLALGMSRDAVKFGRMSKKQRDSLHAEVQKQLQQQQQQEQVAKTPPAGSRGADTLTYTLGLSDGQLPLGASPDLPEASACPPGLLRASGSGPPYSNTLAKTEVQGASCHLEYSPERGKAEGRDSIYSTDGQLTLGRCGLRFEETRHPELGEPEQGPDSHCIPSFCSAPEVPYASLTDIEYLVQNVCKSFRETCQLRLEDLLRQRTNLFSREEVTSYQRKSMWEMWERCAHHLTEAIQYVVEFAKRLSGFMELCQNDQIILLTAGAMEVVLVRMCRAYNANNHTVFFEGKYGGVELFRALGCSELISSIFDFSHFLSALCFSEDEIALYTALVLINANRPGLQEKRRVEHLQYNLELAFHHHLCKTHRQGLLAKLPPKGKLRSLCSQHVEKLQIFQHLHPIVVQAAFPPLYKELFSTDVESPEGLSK

Target: Nuclear receptor ROR-gamma (Mus musculus) (UniProt P51450)
Experiment: qHTS for inhibitors of ROR gamma transcriptional activity; also: nearly all actives have a fitted effect of over 60% in size
Details: Drosophila S2 Gal4-RORgamma UAS-luciferase reporter, 20 h; activity change, negative = inhibition: at 53.6 µM (top of the series)
In short: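 Luciferase reporter read in Schneider cells carrying Gal4-RORγ (mouse) and UAS-Photinus luciferase; cells given compound 1 h before 700 uM copper sulfate induction, then incubated 20 h at ambient temperature.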
% is scaled to controls: 0 for no effect and ±100 for the full control effect; potency is read from the fitted curve at half-maximal effect.

Structure (SMILES)	activity change, negative = inhibition	Potency
OCCc1c[nH]c2cc(F)ccc12	inactive: -13.5%	
COc1ccc(Nc2nc3cc(C)ccc3cc2C#N)cc1	inactive: 25.2%	
Cc1ccc(S(=O)(=O)N2CCCCC2)cc1NC(=O)c1ccc2ccccc2n1		inconclusive: 2.82 µM [activator, full curve]
O=C(O)C1C2C=CC(C3CC23)C1C(=O)NCCc1ccccc1 (centres undefined)		inconclusive: 2.82 µM [activator, full curve]
O=c1c2ccccc2c(C=Nc2ccccc2O)c(O)n1-c1nccs1		inconclusive: 15.8 µM [inhibitor, single point]
CCc1cc(CNC(=O)c2ccc3nc(Cc4ccc(OC)c(OC)c4)oc3c2)on1		inconclusive: 17.8 µM [activator, single point]
O=C(c1cc2sccc2n1Cc1ccc(F)cc1)N1CCCc2ccccc21		inconclusive: 14.1 µM [activator, partial curve, poor fit]
O=C(Nc1nc2ccc(F)cc2s1)c1ccccn1		active: 0.708 µM
O=C(Nc1ccnn1C1CCN(C2CCCCC2)CC1)c1ccccc1	inactive: -17.1%	
CCCN1C(=O)c2[nH]nc(-c3cc(Cl)c(C)cc3O)c2C1c1ccc(O)c(OC)c1 (centres undefined)		inconclusive: 8.91 µM [inhibitor, single point]
Cc1c(C(=O)NCCSCc2ccccc2Cl)cccc1[N+](=O)[O-]		inconclusive: 31.6 µM [activator, single point]
O=c1[nH]c(CN2CCN(c3ccccc3)CC2)nc2scc(-c3ccccc3)c12		inconclusive: 10 µM [inhibitor, partial curve]
CN(C)/C=C/C(=O)/C=C/c1cn(-c2ncc(C(F)(F)F)cc2Cl)c2ccccc12		inconclusive: 3.98 µM [activator, single point]
O=c1[nH]n(-c2ccccc2)c(=O)c2ccccc12	inactive: 17.5%	
C/C(=N\NC(N)=S)c1ccc2c(c1)OCCO2		active: 5.01 µM
Cc1cc(C(C)C)n2c(nc3ccccc32)c1C#N	inactive: -4.6%	
Cc1sc2ncnc(NCCc3ccc(S(N)(=O)=O)cc3)c2c1C		active: 8.91 µM
O=C(Nc1ccc(SC(F)F)cc1)C1CC(=O)N(Cc2ccccc2)C1 (centres undefined)		inconclusive: 28.2 µM [activator, single point]
COc1cccc(NC(=S)NNC(=O)C(C)n2nc(C)c([N+](=O)[O-])c2C)c1 (centres undefined)		inconclusive: 1.12 µM [inhibitor, full curve]
CC(CCc1ccccc1)NC(=O)c1ccccc1F (centres undefined)		inconclusive: 6.31 µM [inhibitor, single point]
CCCc1cc(=O)oc2cc(OCC(=O)NCCc3c[nH]c4ccccc34)ccc12		inconclusive: 35.5 µM [inhibitor, single point]
O=C(Nc1nc2ccccc2n1CCOc1ccccc1)c1ccco1		active: 2 µM
CCCCC(=O)N/C(N)=N/c1nc2ccccc2o1		inconclusive: 7.08 µM [inhibitor, partial curve, poor fit]
COc1ccc(-c2csc(NC(=O)C3CC(=O)N(c4ccc5c(c4)OCCO5)C3)n2)cc1 (centres undefined)		inconclusive: 2.82 µM [activator, full curve]
CCOC(=O)c1cn2nc(SCc3ccccc3)nc2nc1C		inconclusive: 12.6 µM [activator, single point]

Structure (SMILES)	activity change, negative = inhibition	Potency
Cc1cccc(-c2noc(CCCC(=O)NCC3CCCO3)n2)c1 (centres undefined)		inconclusive: 5.62 µM [inhibitor, full curve]
CCC(C(=O)NNC(=O)c1cnccn1)c1ccccc1 (centres undefined)		active: 11.2 µM
COC(=O)NCCOC(=O)N(O)c1ccc(Br)cc1		inconclusive: 20 µM [activator, single point]
Cc1nc(N)nc(SCc2ccc([N+](=O)[O-])cc2)c1N		inconclusive: 15.8 µM [activator, single point]
CCC(=O)Nc1ccc(N2CCCCC2)c(C(=O)Nc2ccc(OC)cc2)c1		inconclusive: 14.1 µM [activator, single point]
Cc1ccc(NC(=O)c2cc(S(=O)(=O)c3ccccc3)ccc2Cl)cc1	inactive: 32.2%	
S=C(NCCc1ccccn1)Nc1ccc(Cl)cc1Cl		active: 5.01 µM
N#Cc1cccc(-c2cncnc2-n2ccnc2)c1	inactive: -19.1%	
C=CCNC(=S)N/N=C(\C)c1ccc(OC)cc1		active: 0.708 µM
CC(=O)N1c2ccccc2Oc2cc3ccccc3cc21		inconclusive: 5.01 µM [activator, partial curve, poor fit]
CCOc1cc(C2NC(=S)NC(C)=C2C(=O)Nc2ccc(OC)cc2)ccc1O (centres undefined)	inactive: 23.4%	
CCOC(=O)C1(CCOc2ccccc2)CCN(C(=O)c2cncs2)CC1		inconclusive: 11.2 µM [activator, partial curve]
Cc1cc(OCc2cc(C(=O)N(C)C(C)c3ccccn3)no2)cc(C)c1Cl (centres undefined)		inconclusive: 14.1 µM [activator, partial curve]
O=C(Nc1ccc(NC(=O)C2CC2)cn1)c1ccccc1Cl		inconclusive: 1.58 µM [activator, single point]
COc1ccc(-c2nsc3c(N4CCCCC4C)ncnc23)cc1 (centres undefined)		active: 0.282 µM
Cc1ccc(NC(=O)CSc2nnnn2C)cc1S(=O)(=O)N(C)C	inactive: 28.3%	
COc1cc2nc(C)sc2cc1SC	inactive: -20.6%	
COc1cccc(-c2nc(-c3ccccn3)no2)c1		inconclusive: 7.08 µM [inhibitor, full curve, poor fit]
Cc1cccc(NC(=S)NC(C)CCc2ccccc2)c1 (centres undefined)		active: 7.08 µM
COc1cccc(/C=N/n2c(-c3cc(C)[nH]n3)n[nH]c2=S)c1O		inconclusive: 2.82 µM [inhibitor, partial curve, poor fit]
CC(C)[C@H](NC(=O)c1ccc(C(C)(C)C)cc1)C(=O)Nc1nnc(C2CC2)s1	inactive: 26.1%	
O=C(Nc1nnc(-c2cccs2)s1)c1cccc(F)c1		inconclusive: 12.6 µM [inhibitor, single point]
CC1CC(C)(C)N(C(=O)CSc2ccc(-c3ccc(F)cc3)nn2)c2ccccc21 (centres undefined)		inconclusive: 12.6 µM [activator, partial curve]
COc1ccc(S(=O)(=O)NCCSC(C)(C)C)c(Cl)c1Cl	inactive: 4.15%	
COc1cccc(C(=O)Nc2nnc(C3CCCO3)s2)c1 (centres undefined)		inconclusive: 0.224 µM [activator, full curve, poor fit]

Structure (SMILES)	activity change, negative = inhibition	Potency
CCOC(=O)c1c(C)[nH]c(C(=O)NCc2ccccc2OC)c1C		inconclusive: 1.58 µM [activator, partial curve, poor fit]
COc1ccc(CNc2nc(NCc3ccc(OC)c(OC)c3)n(C(=O)c3cccs3)n2)cc1OC		inconclusive: 10 µM [activator, partial curve]
COc1ccc(Nc2ncccc2C(=O)NCc2ccccc2)cc1		inconclusive: 35.5 µM [activator, single point]
CCCCCCCC[n+]1cccc(C(=O)N(CC)CC)c1	inactive: 3.31%	
COc1ccc2c(c1)C(=O)[C@H](OC(=O)NCCOc1ccccc1)[C@@H](c1ccc(OC)c(Br)c1)O2	inactive: -0.485%	
O=C(CN1C(=O)NC(Cc2c[nH]c3ccccc23)C1=O)NCCc1ccccc1 (centres undefined)	inactive: -5.84%	
Cc1ccc(C)c(S(=O)(=O)Nc2ccc(O)c(Sc3ncn[nH]3)c2)c1		inconclusive: 20 µM [activator, partial curve]
COc1ccc2[nH]c(=O)c(CNc3ccccc3C)cc2c1		inconclusive: 14.1 µM [activator, partial curve, poor fit]
O=C(CC(c1ccccc1)c1ccccc1O)N1CCCCC1 (centres undefined)		inconclusive: 0.708 µM [activator, single point]
CCOC(=O)c1cnc(SCCc2ccccc2)nc1N	inactive: -11.7%	
CCCOC(=O)CCCCCCCCC(O)CN1CCCCC1 (centres undefined)		inconclusive: 31.6 µM [activator, single point]
Cc1cnc(NC(=O)CSc2nnc(COc3c(C)cccc3C)o2)s1		active: 11.2 µM
Cc1cc(S(=O)(=O)Nc2c(C)nn(C)c2C)c(Cl)cc1Cl		inconclusive: 1.12 µM [activator, partial curve, poor fit]
Cc1onc(-c2c(Cl)cccc2Cl)c1C(=O)NC(=S)Nc1sc2c(c1C(N)=O)CCC(C)C2 (centres undefined)		inconclusive: 5.01 µM [inhibitor, partial curve]
CC(C)(C)NC(=O)CCCSc1nc2ccccc2s1		inconclusive: 17.8 µM [inhibitor, single point]
CCOC(=O)c1c(-c2ccccc2)csc1NC(=O)CSc1nc(N)cc(N)n1		inconclusive: 14.1 µM [activator, partial curve]
O=C(/C=C/NNC(=O)c1ccc(Br)cc1)c1ccccc1		inconclusive: 17.8 µM [inhibitor, single point]
CCOC(=O)c1sc(NC(=O)c2cc(S(=O)(=O)N3CCOCC3)ccc2C)nc1C	inactive: 5.65%	
Cc1ccc(-c2csc3ncnc(Sc4nnc(CN5CCCCCC5=O)o4)c23)cc1		active: 10 µM
CCCn1c(Nc2ccccc2C)nc2ccccc21		inconclusive: 35.5 µM [inhibitor, single point]
CCOC(=O)c1cc(=O)c2ccc(OCC(=O)Nc3ccc(F)cc3)cc2o1	inactive: -6.94%	
O=C(Nc1cnn(Cc2ccc(F)cc2)c1)c1cnn2c(C(F)F)cc(-c3ccccc3)nc12	inactive: -15.1%	
Cc1ccc(NC(=O)COC(=O)C(NS(=O)(=O)c2ccc(Cl)cc2)C(C)O)cc1 (centres undefined)		inconclusive: 12.6 µM [activator, single point]
O=C(c1cccc(Cl)c1)N1CCC(C(=O)N2CCN(Cc3ccccc3)CC2)CC1		inconclusive: 35.5 µM [activator, single point]

Taken from the entries so far for reference:
Structure (SMILES)	activity change, negative = inhibition	Potency
CCC(=O)Nc1ccc(N2CCCCC2)c(C(=O)Nc2ccc(OC)cc2)c1		inconclusive: 14.1 µM [activator, single point]
Cc1ccc(NC(=O)c2cc(S(=O)(=O)c3ccccc3)ccc2Cl)cc1	inactive: 32.2%	
S=C(NCCc1ccccn1)Nc1ccc(Cl)cc1Cl		active: 5.01 µM
